Measured data: PubChem BioAssay AID1159584 (Peter MacCallum Cancer Centre, 2016)
Here is an unselected part of about 18,000 reagents. Not given: the amount of reagent, the time to read-out.

Purpose: 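Genes that CDH1-null MCF10A cells selectively depend on to survive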 (primary screen)
Cells: human MCF10A breast epithelial cells, parental and CDH1-null
Knock-down reagent: siRNA against human genes
Detection: 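ATP luminescence (CellTiter-Glo) viability per line relative to mean mock wells over all plates, and the ratio of CDH1-null to parental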
Scale: CDH1-null / parental viability ratio: higher = CDH1-null cells survive relatively better than parental; CDH1-null viability vs mock: higher = more viable CDH1-null cells; parental viability vs mock: higher = more viable parental cells

gene knocked down | CDH1-null / parental viability ratio | CDH1-null viability vs mock (fraction of mock) | parental viability vs mock (fraction of mock)
SBF1 (SET binding factor 1) | 1.34 | 0.99 | 0.74
OR4F17 (olfactory receptor family 4 subfamily F member 17) | 0.97 | 0.94 | 0.97
B3GNT8 | 1.08 | 0.68 | 0.63
ERICH5 (glutamate rich 5) | 0.96 | 0.7 | 0.73
REXO5 (RNA exonuclease 5) | 0.82 | 0.78 | 0.95
OPRL1 (opioid related nociceptin receptor 1) | 0.81 | 0.72 | 0.89
C11orf87 (chromosome 11 open reading frame 87) | 1 | 0.86 | 0.86
MIGA2 (mitoguardin 2) | 0.82 | 0.64 | 0.78
GRM8 (glutamate metabotropic receptor 8) | 1.46 | 1.02 | 0.7
LSP1 (lymphocyte specific protein 1) | 1.33 | 1.29 | 0.97
STAB2 (stabilin 2) | 1.03 | 0.74 | 0.72
NCR1 (natural cytotoxicity triggering receptor 1) | 1.06 | 0.74 | 0.7
PYGL (glycogen phosphorylase L) | 1.17 | 0.95 | 0.81
ZNF544 (zinc finger protein 544) | 1.24 | 0.82 | 0.66
DRC11 (dynein regulatory complex subunit 11) | 0.98 | 0.86 | 0.88
ANAPC16 (anaphase promoting complex subunit 16) | 1.07 | 0.58 | 0.54
SIAE (sialic acid acetylesterase) | 1 | 0.86 | 0.86
ADGRG4 (adhesion G protein-coupled receptor G4) | 0.99 | 0.98 | 0.99
PPM1F (protein phosphatase, Mg2+/Mn2+ dependent 1F) | 1.4 | 0.81 | 0.58
CCL25 (C-C motif chemokine ligand 25) | 1.15 | 0.62 | 0.54
CDKL3 (cyclin dependent kinase like 3) | 1.03 | 0.99 | 0.96
RUNX1 (RUNX family transcription factor 1) | 0.9 | 0.44 | 0.49
HCCS (holocytochrome c synthase) | 1.24 | 1.09 | 0.88
CSTF1 (cleavage stimulation factor subunit 1) | 0.82 | 0.62 | 0.76
TES (testin LIM domain protein) | 1.21 | 0.63 | 0.52
PTPRB (protein tyrosine phosphatase receptor type B) | 1.04 | 0.8 | 0.77
POT1 (protection of telomeres 1) | 0.63 | 0.48 | 0.76
RNF43 (ring finger protein 43) | 1.02 | 0.98 | 0.96
CENPB (centromere protein B) | 1.06 | 1.21 | 1.14
IFIT1 (interferon induced protein with tetratricopeptide repeats 1) | 0.64 | 0.55 | 0.86
SCN9A (sodium voltage-gated channel alpha subunit 9) | 1.11 | 0.82 | 0.74
CACFD1 (calcium channel flower domain containing 1) | 1.03 | 0.89 | 0.86
EPN3 (epsin 3) | 0.92 | 0.68 | 0.74
MRPL37 (mitochondrial ribosomal protein L37) | 1.44 | 0.72 | 0.5
FAH (fumarylacetoacetate hydrolase) | 1.06 | 0.93 | 0.88
GRIP1 (glutamate receptor interacting protein 1) | 0.97 | 0.6 | 0.62
MAGEA1 (MAGE family member A1) | 0.87 | 0.48 | 0.55
KRT3 (keratin 3) | 1.03 | 0.8 | 0.78
FCER1G (Fc epsilon receptor Ig) | 0.8 | 0.7 | 0.88
WDR73 (WD repeat domain 73) | 0.89 | 0.82 | 0.92
IQCF3 (IQ motif containing F3) | 1.06 | 0.56 | 0.53
SCP2D1 (SCP2 sterol binding domain containing 1) | 1.2 | 0.78 | 0.65
CFAP126 (cilia and flagella associated protein 126) | 0.85 | 0.51 | 0.6
EIF2AK4 (eukaryotic translation initiation factor 2 alpha kinase 4) | 1.04 | 1.05 | 1.01
ZNF230 (zinc finger protein 230) | 0.95 | 0.93 | 0.98
CXCL6 (C-X-C motif chemokine ligand 6) | 0.77 | 0.46 | 0.6
PABPC3 (poly(A) binding protein cytoplasmic 3) | 1.24 | 0.99 | 0.8
PURB (purine rich element binding protein B) | 0.92 | 0.68 | 0.74
PI4KB (phosphatidylinositol 4-kinase beta) | 0.86 | 0.63 | 0.73
RAB3C (RAB3C, member RAS oncogene family) | 0.88 | 0.84 | 0.96
SREBF2 (sterol regulatory element binding transcription factor 2) | 1.02 | 0.9 | 0.88
MEX3A (mex-3 RNA binding family member A) | 0.98 | 0.98 | 1
NUP210 (nucleoporin 210) | 1.14 | 0.91 | 0.8
PHIP (PHIP subunit of CUL4-Ring ligase complex) | 1.08 | 0.78 | 0.72
ZFHX2 (zinc finger homeobox 2) | 1.03 | 0.8 | 0.78
YWHAH | 1 | 0.98 | 0.98
TMEM184B (transmembrane protein 184B) | 1.04 | 0.94 | 0.9
ASMTL (acetylserotonin O-methyltransferase like) | 0.97 | 0.56 | 0.58
TMIGD2 (transmembrane and immunoglobulin domain containing 2) | 1.33 | 1.36 | 1.02
OR10G8 (olfactory receptor family 10 subfamily G member 8) | 1.13 | 1.04 | 0.92
NPM1 (nucleophosmin 1) | 1.05 | 1 | 0.95
ADAM18 (ADAM metallopeptidase domain 18) | 1.12 | 0.48 | 0.43
GLUL (glutamate-ammonia ligase) | 1.03 | 1 | 0.97
ARID3C (AT-rich interaction domain 3C) | 0.87 | 0.84 | 0.97
SYCP2L (synaptonemal complex protein 2 like) | 1.24 | 0.94 | 0.76
TRIM28 (tripartite motif containing 28) | 0.62 | 0.48 | 0.78
IL19 (interleukin 19) | 1.45 | 0.96 | 0.66
PNMT (phenylethanolamine N-methyltransferase) | 0.75 | 0.6 | 0.8

Entries above whose gene name begins with N or n:
gene knocked down | CDH1-null / parental viability ratio | CDH1-null viability vs mock (fraction of mock) | parental viability vs mock (fraction of mock)
NCR1 (natural cytotoxicity triggering receptor 1) | 1.06 | 0.74 | 0.7
NUP210 (nucleoporin 210) | 1.14 | 0.91 | 0.8
NPM1 (nucleophosmin 1) | 1.05 | 1 | 0.95
